Results taken from patent publication US20210393685A1 (TRUSTEES OF COLUMBIA UNIVERSITY IN THE CITY OF NEW YORK, published 2021).
These are yes or no findings as the source states them, for the method shown. Some entries that bind do so weakly or less than the wild type.

Sequences of proteins named here, by UniProt entry; tags and fusion partners are left off.
UniProt P26718: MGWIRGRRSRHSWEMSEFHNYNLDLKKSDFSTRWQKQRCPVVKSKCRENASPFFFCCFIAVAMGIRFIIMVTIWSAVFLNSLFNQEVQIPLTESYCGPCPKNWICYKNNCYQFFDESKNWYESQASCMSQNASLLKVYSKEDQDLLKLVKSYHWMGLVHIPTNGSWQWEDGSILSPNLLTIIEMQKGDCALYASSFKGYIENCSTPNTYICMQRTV

Experiments:
[1] = target: NKG2D on primary NK cells (human) (UniProt P26718); test: flow cytometry on primary NK cells, detected with anti-Myc Ab (FIG. 5D)
[2] = target: NKG2D on primary NK cells (human) (UniProt P26718); test: flow cytometry on NKG2D-expressing primary NK cells, detected with FITC anti-Myc antibody
[3] = target: NKG2D on primary NK cells (human) (UniProt P26718); test: flow cytometry on primary NK cells, detected with anti-Myc Ab (FIG. 5E)

binding [1] | binding [2] | binding [3] | Binder
binds | binds |  | anti-CD33-ULBP1 chimera 1 (CD33-ULBP1-1) (other, also called αCD33-ULBP1 chimera 1) EIVLTQSPGSLAVSPGERVTMSCKSSQSVFFSSSQKNYLAWYQQIPGQSPRLLIYWASTRESGVPDRFTGSGSGTDFTLTISSVQPEDLAIYYCHQYLSSRTFGQGTKLEIKRGSTSGSGKPGSGEGSTKGQVQLQQPGAEVVKPGASVKMSCKASGYTFTSYYIHWIKQTPGQGLEWVGVIYPGNDDISYNQKFQGKATLTADKSSTTAYMQLSSLTSEDSAVYYCAREVRLRYFDVWGQGTTVTVSSSSSAGGGGSGGGGSGGGGSWVDTHCLCYDFIITPKSRPEPQWCEVQGLVDERPFLHYDCVNHKAKAFASLGKKVNVTKTWEEQTETLRDVVDFLKGQLLDIQVENLIPIEPLTLQARMSCEHEAHGHGRGSWQFLFNGQKFLLFDSNNRKWTALHPGAKKMTEKWEKNRDVTMFFQKISLGDCKMWLEEFLMYWEQMLDPTKPPSLAPGEQKLISEEDLHHHHHH
 | binds | binds | anti-CD33-ULBP1 chimera 2 (CD33-ULBP1-2, with proline) (other, also called αCD33-ULBP1 chimera 2) EIVLTQSPGSLAVSPGERVTMSCKSSQSVFFSSSQKNYLAWYQQIPGQSPRLLIYWASTRESGVPDRFTGSGSGTDFTLTISSVQPEDLAIYYCHQYLSSRTFGQGTKLEIKRGSTSGSGKPGSGEGSTKGQVQLQQPGAEVVKPGASVKMSCKASGYTFTSYYIHWIKQTPGQGLEWVGVIYPGNDDISYNQKFQGKATLTADKSSTTAYMQLSSLTSEDSAVYYCAREVRLRYFDVWGQGTTVTVSSSSSAGGGGSGGGGSGGGGSPWVDTHCLCYDFIITPKSRPEPQWCEVQGLVDERPFLHYDCVNHKAKAFASLGKKVNVTKTWEEQTETLRDVVDFLKGQLLDIQVENLIPIEPLTLQARMSCEHEAHGHGRGSWQFLFNGQKFLLFDSNNRKWTALHPGAKKMTEKWEKNRDVTMFFQKISLGDCKMWLEEFLMYWEQMLDPTKPPSLAPGEQKLISEEDLHHHHHH
